PMC4879633
No constants are given. Whether binding was seen depends on the method and setting. In cells and extracts the contact can be indirect. Some results given as binding are weak or reduced against the parent protein; the word gives no strength. Where a sequence is shown, tags or fusion partners need not be part of it.

The chains behind the UniProt entries cited, without tags or fusion partners.
UniProt P49674: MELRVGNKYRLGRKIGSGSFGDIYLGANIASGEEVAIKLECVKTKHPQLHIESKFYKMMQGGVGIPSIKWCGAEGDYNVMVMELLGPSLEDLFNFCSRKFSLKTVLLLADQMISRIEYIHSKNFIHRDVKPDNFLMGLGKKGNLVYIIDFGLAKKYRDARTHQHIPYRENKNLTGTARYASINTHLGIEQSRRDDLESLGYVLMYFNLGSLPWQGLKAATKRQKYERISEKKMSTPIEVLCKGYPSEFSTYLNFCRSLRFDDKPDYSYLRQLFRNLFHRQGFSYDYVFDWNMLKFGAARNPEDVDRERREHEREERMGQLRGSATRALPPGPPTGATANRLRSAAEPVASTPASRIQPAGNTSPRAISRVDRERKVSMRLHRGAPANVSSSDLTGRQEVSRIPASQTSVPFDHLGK
UniProt P13647: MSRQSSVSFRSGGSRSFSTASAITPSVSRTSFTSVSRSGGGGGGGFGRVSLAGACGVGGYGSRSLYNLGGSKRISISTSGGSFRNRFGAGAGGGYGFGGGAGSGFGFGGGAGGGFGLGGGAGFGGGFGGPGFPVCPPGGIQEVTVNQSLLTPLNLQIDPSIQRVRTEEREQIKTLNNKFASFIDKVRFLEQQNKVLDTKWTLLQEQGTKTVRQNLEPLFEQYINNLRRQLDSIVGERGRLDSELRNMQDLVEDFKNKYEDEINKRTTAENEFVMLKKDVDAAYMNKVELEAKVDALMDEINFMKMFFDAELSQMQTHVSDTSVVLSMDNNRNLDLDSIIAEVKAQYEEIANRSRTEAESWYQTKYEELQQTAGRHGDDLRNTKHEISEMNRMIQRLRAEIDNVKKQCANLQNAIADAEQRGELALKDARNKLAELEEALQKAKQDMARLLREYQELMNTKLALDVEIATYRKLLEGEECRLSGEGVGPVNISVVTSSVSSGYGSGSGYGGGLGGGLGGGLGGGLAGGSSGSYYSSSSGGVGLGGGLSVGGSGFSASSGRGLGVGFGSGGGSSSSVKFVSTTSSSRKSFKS
UniProt Q04695: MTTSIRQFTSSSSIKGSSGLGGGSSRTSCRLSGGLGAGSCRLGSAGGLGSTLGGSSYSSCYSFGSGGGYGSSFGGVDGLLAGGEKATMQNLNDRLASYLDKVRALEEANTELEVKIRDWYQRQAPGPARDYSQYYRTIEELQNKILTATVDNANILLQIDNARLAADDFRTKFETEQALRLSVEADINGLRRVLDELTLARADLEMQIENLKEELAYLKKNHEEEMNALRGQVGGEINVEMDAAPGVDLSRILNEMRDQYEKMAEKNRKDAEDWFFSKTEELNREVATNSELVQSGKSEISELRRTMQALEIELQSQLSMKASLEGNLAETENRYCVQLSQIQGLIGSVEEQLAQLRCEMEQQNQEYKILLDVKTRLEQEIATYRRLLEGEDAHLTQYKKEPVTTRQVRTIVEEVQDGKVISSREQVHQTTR

T1: FAM83H-FLAG (human) (UniProt Q6ZRV2)
T1 sequence: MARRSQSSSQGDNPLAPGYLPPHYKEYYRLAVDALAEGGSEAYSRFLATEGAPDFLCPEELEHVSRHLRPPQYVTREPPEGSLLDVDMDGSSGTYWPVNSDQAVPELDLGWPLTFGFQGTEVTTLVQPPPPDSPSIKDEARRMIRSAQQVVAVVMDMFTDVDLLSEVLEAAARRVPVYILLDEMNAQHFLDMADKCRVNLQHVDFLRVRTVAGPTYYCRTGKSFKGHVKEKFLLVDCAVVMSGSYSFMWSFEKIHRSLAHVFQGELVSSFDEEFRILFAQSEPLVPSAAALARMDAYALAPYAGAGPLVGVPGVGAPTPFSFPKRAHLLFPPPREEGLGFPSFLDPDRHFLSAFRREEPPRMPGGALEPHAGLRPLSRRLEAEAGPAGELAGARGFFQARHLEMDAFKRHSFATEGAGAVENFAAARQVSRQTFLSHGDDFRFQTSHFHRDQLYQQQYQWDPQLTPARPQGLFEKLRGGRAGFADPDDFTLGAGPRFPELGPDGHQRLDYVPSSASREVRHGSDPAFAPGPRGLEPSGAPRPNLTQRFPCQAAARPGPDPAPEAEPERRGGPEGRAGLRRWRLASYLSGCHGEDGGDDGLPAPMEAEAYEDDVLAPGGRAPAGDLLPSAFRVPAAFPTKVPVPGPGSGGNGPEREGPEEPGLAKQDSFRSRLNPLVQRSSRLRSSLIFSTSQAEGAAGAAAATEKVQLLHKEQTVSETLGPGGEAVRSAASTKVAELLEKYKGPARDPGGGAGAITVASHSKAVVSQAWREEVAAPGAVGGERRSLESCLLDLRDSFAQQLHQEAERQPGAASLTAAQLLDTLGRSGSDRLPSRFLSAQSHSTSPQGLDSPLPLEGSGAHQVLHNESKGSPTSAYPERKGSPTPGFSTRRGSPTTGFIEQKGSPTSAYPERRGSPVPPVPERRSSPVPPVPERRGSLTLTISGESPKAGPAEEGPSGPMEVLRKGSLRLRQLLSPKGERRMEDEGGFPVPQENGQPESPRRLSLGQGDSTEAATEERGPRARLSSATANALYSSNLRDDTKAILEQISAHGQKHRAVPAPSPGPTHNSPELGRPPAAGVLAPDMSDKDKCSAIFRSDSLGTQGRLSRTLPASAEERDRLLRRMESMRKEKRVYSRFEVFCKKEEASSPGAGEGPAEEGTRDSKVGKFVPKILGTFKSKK

T2: FAM83H-FLAG (human), Q6ZRV2
T2 chain: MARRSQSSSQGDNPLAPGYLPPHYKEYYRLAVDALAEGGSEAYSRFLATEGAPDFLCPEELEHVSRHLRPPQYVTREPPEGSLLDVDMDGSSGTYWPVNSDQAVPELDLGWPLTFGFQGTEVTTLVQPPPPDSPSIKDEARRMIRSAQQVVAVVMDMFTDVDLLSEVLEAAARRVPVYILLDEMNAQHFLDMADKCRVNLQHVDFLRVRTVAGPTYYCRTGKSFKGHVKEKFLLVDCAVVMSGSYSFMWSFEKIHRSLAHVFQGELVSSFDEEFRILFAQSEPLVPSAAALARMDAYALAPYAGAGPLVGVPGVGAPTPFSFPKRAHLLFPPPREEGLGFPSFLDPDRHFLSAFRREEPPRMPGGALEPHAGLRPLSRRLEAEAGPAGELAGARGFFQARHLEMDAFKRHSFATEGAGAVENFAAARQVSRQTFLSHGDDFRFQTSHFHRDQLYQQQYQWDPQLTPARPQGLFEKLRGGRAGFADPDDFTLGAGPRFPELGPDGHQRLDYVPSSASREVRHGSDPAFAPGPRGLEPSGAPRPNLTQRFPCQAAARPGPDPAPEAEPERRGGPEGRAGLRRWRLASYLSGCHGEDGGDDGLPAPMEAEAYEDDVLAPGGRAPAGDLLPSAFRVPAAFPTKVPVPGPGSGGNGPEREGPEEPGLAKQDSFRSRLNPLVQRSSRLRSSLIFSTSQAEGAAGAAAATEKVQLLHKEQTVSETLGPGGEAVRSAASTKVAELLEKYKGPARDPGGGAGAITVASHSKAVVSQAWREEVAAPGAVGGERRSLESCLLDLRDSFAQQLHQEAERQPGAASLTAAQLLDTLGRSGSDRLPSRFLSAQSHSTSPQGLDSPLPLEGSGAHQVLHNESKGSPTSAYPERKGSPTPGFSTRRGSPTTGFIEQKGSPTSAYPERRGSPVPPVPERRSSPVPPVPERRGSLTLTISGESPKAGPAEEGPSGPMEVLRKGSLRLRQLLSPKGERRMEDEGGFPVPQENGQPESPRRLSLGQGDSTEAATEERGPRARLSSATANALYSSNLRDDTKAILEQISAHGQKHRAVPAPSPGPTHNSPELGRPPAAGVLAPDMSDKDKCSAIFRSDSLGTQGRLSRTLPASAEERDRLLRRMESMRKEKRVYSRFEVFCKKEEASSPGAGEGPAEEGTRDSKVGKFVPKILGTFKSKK


Key:
[1] = target: T1, FAM83H-FLAG (human); assay: co-IP; anti-FLAG antibody (M2) cross-linked to Protein G Dynabeads; lysates of transfected HAM2 cells in PBS with 1% Triton X-100, sonicated, 100,000 x g supernatant; 4 °C for 3 h; Western blotting of immunoprecipitates
[2] = target: T2, FAM83H-FLAG (human), Q6ZRV2; assay: as above; conditions: remark: other sources report otherwise

Row | binding [1] | binding [2] | Molecule
1 | binds |  | casein kinase I epsilon (CK-1ε) (from UniProt P49674 1-416) (enzyme)
2 | binds |  | keratin 5 (from UniProt P13647 1-590)
3 | binds |  | keratin 17 (from UniProt Q04695 1-432)
4 | binds |  | keratin 18 (protein, UniProt P05783 1-430) MSFTTRSTFSTNYRSLGSVQAPSYGARPVSSAASVYAGAGGSGSRISVSRSTSFRGGMGSGGLATGIAGGLAGMGGIQNEKETMQSLNDRLASYLDRVRSLETENRRLESKIREHLEKKGPQVRDWSHYFKIIEDLRAQIFANTVDNARIVLQIDNARLAADDFRVKYETELAMRQSVENDIHGLRKVIDDTNITRLQLETEIEALKEELLFMKKNHEEEVKGLQAQIASSGLTVEVDAPKSQDLAKIMADIRAQYDELARKNREELDKYWSQQIEESTTVVTTQSAEVGAAETTLTELRRTVQSLEIDLDSMRNLKASLENSLREVEARYALQMEQLNGILLHLESELAQTRAEGQRQAQEYEALLNIKVKLEAEIATYRRLLEDGEDFNLGDALDSSNSMQTIQKTTTRRIVDGKVVSETNDTKVLRH
5 |  | binds | keratin 14, P02533 1-472 (protein) MTTCSRQFTSSSSMKGSCGIGGGIGGGSSRISSVLAGGSCRAPSTYGGGLSVSSSRFSSGGACGLGGGYGGGFSSSSSSFGSGFGGGYGGGLGAGLGGGFGGGFAGGDGLLVGSEKVTMQNLNDRLASYLDKVRALEEANADLEVKIRDWYQRQRPAEIKDYSPYFKTIEDLRNKILTATVDNANVLLQIDNARLAADDFRTKYETELNLRMSVEADINGLRRVLDELTLARADLEMQIESLKEELAYLKKNHEEEMNALRGQVGGDVNVEMDAAPGVDLSRILNEMRDQYEKMAEKNRKDAEEWFFTKTEELNREVATNSELVQSGKSEISELRRTMQNLEIELQSQLSMKASLENSLEETKGRYCMQLAQIQEMIGSVEEQLAQLRCEMEQQNQEYKILLDVKTRLEQEIATYRRLLEGEDAHLSSSQFSSGSQSSRDVTSSSRQIRTKVMDVHDGKVVSTHEQVLRTKN
